Test results published in the supplement of paper PMC4683952.
Some of the results follow. No stated cut-off is given here; in the data, active = 2 or more and inactive = the rest. Repeats in this data set agree poorly, so a single value says little.

System: Lgr5 (MarsCy1-Lgr5-EGFP, U2OS)
Assay: cell-surface Lgr5 expression (SCi1 fluorescence, background-subtracted) relative to WT DMSO (fold of DMSO control); higher = more Lgr5 at the plasma membrane
Details: U2OS MarsCy1-Lgr5-EGFP stable; treatment time: overnight; library: ActiProbe-5K (TimTec); 25 µM

SMILES | cell-surface Lgr5 expression
Cn1nc(C(F)(F)F)c(Br)c1C(=O)NN | inactive: 0.952
CC1(C)CC2(CCS1)N1CC3(C)CN2CC(C)(C1)C3=O (stereo unspecified) | inactive: 0.902
Cc1nnc(C)n1/N=C/c1cccn1C | inactive: 1.24
CSc1ccc(/C=N/n2c(S)nnc2-c2ccc(C(C)(C)C)cc2)cc1 | inactive: 0.935
OC1(/C=C/C[NH+]2CCCCC2)CCCCC1.[Cl-] | inactive: 1.33
O=c1[nH]cnc2sc3c(c12)CCCC3 | inactive: 0.771
CC1=NN(c2ccccc2)C(=O)/C1=C/N(S)C(C)(C)C | inactive: 1.06
O=C(O)c1cc2c(s1)CCCC2 | inactive: 1.36
CCOC(=O)c1c[nH]c2nc(C)nn2c1=O | inactive: 0.799
CSc1nc(N)nc(SCC(=O)C(C)(C)C)c1C#N | inactive: 1.35
O=c1[nH]cnc2c1ncn2[C@H]1C[C@H](O)[C@@H](CO)O1 | inactive: 1.08
c1ccc(Cn2c(CSc3nc4ccccc4o3)nc3ccccc32)cc1 | inactive: 0.924
CCOC(=O)Cc1c[nH][nH]c1=O | inactive: 0.82
Cn1c(=O)[nH]c(=O)c2c1nc(Br)n2CCC(=O)O | inactive: 1.34
Fc1ccccc1/C=N\n1c(S)nnc1-c1ccccc1 | inactive: 1.15
S=C(Nc1ccccc1)Nc1ccccc1Br | inactive: 1.07
C1(=NC(N\C1=C(\C#N)C#N)C(C)C)N (stereo unspecified) | inactive: 0.957
Fc1ccc(NC(=S)N2CCOCC2)cc1 | inactive: 1.27
CSc1sc(SC)c(Br)c1Br | inactive: 1.11
Cn1nccc1-c1cc(C(=O)O)n[nH]1 | inactive: 1.22
Sc1nnc(COc2ccccc2)n1/N=C/c1ccccn1 | inactive: 0.965
CC(/C=C/c1ccccc1)=N\Nc1n[nH]c(=S)[nH]1 | inactive: 1.08
C1CCCN(c2nc3nonc3nc2N2CCCCCC2)CC1 | inactive: 1.07
N=C1SCC(=O)N1c1nonc1N | inactive: 1.21

SMILES | cell-surface Lgr5 expression
CCOC(=O)/C=C(/C)Nc1nonc1N(C(C)=O)C1CCCCC1 | inactive: 1.16
O=C(O)C1CSC(c2cccs2)N1 (stereo unspecified) | inactive: 0.973
Cc1nn(CCc2nn[nH]n2)c(C)c1Cl | inactive: 1.18
CC(C)CN(CC(C)C)C(=S)NC1CCCCC1 | inactive: 1.17
Cn1nc([N+](=O)[O-])nc1Oc1ccc2c(c1)OCO2 | inactive: 1.36
CCCCNC(=O)N1CCNC1=O | inactive: 1.17
Nc1nonc1-c1noc(-c2ccc(Br)o2)n1 | inactive: 1.1
Nc1cc2c(cc1Cl)OCO2 | inactive: 1.04
C=CCCNS(=O)(=O)c1ccc(Cl)cc1 | inactive: 1.01
C1=C(C2CCNc3c2ccc2cccnc32)CCCC1 (stereo unspecified) | inactive: 1.09
COCCCNc1ncnc2ccc(Br)cc12 | inactive: 0.402
CS(=O)(=O)Nc1ccc(Cl)c(C(F)(F)F)c1 | inactive: 1.06
CN1CCc2c(sc(N)c2C#N)C1 | inactive: 1.16
N=C1NC(c2ccc(Cl)cc2)=CC(c2ccc(F)cc2)S1 (stereo unspecified) | inactive: 0.773
CCSc1sc(CC)cc1C(C)=O | inactive: 1.09
Nc1nc2c(nc(N/N=C3/C(=O)Nc4ccccc43)n2C2OC(CO)C(O)C2O)c(=O)[nH]1 (stereo unspecified) | inactive: 1.11
S=C1NC(C23CC4CC(CC(C4)C2)C3)=CC(c2ccc(Br)cc2)N1 (stereo unspecified) | inactive: 0.83
CCCCN(CCCC)S(=O)(=O)c1ncn[nH]1 | inactive: 1
C(=N/c1c2ccccc2nc2ccccc12)/c1ccc2c(c1)OCO2 | inactive: 0.265
Cc1sc2nc3n(c(=O)c2c1C)CCCCC3 | inactive: 1.09
CC(=O)OC[C@H]1O[C@@H](n2cc(C)c(=O)[nH]c2=O)C[C@@H]1OC(C)=O | inactive: 1.1
NC(=O)c1c(NC(=O)/C=C\C(=O)O)sc2c1CCC2 | inactive: 1.3
CSc1ncc(C#N)c(N)n1 | inactive: 1.09
Cc1n[n+]2c(Br)c(C)[n-]n2c1Br | inactive: 1.11

Part of the list above in order of length of the SMILES, high to low:
SMILES | cell-surface Lgr5 expression
Nc1nc2c(nc(N/N=C3/C(=O)Nc4ccccc43)n2C2OC(CO)C(O)C2O)c(=O)[nH]1 (stereo unspecified) | inactive: 1.11
CC(=O)OC[C@H]1O[C@@H](n2cc(C)c(=O)[nH]c2=O)C[C@@H]1OC(C)=O | inactive: 1.1
S=C1NC(C23CC4CC(CC(C4)C2)C3)=CC(c2ccc(Br)cc2)N1 (stereo unspecified) | inactive: 0.83
C(=N/c1c2ccccc2nc2ccccc12)/c1ccc2c(c1)OCO2 | inactive: 0.265
CCOC(=O)/C=C(/C)Nc1nonc1N(C(C)=O)C1CCCCC1 | inactive: 1.16
N=C1NC(c2ccc(Cl)cc2)=CC(c2ccc(F)cc2)S1 (stereo unspecified) | inactive: 0.773
NC(=O)c1c(NC(=O)/C=C\C(=O)O)sc2c1CCC2 | inactive: 1.3
CS(=O)(=O)Nc1ccc(Cl)c(C(F)(F)F)c1 | inactive: 1.06
C1=C(C2CCNc3c2ccc2cccnc32)CCCC1 (stereo unspecified) | inactive: 1.09
Nc1nonc1-c1noc(-c2ccc(Br)o2)n1 | inactive: 1.1
CC(C)CN(CC(C)C)C(=S)NC1CCCCC1 | inactive: 1.17
Cc1sc2nc3n(c(=O)c2c1C)CCCCC3 | inactive: 1.09
Cc1nn(CCc2nn[nH]n2)c(C)c1Cl | inactive: 1.18
COCCCNc1ncnc2ccc(Br)cc12 | inactive: 0.402
O=C(O)C1CSC(c2cccs2)N1 (stereo unspecified) | inactive: 0.973
CCSc1sc(CC)cc1C(C)=O | inactive: 1.09
CCCCNC(=O)N1CCNC1=O | inactive: 1.17
CSc1ncc(C#N)c(N)n1 | inactive: 1.09

The results go on:

SMILES | cell-surface Lgr5 expression
O=S(=O)(c1ccc(Cl)s1)N1CCCCC1 | inactive: 1.19
O=S1(=O)OC(c2ccc(O)cc2)(c2ccc(O)cc2)c2ccccc21 | inactive: 1.2
N#Cc1cnn2cc([N+](=O)[O-])cnc12 | inactive: 1.24
Cc1cccc(-c2nnc3n2CC(C)S3)c1 (stereo unspecified) | inactive: 1.05
N#Cc1c(N)sc2c1CCC2 | inactive: 1.23
N#C/C(=C1\CCCCN1)c1nnc2n1CCCCC2 | inactive: 0.978
O=C(Cc1n[nH]c(=O)[nH]c1=O)N/N=C/c1cc(=O)[nH]c(=O)[nH]1 | inactive: 1.58
Nc1ccc2[nH]c3c(c2c1)CCCC3 | inactive: 1.35
NC#Cc1cnn(-c2ccccc2)n1 | inactive: 1.21
c1ccc2c(c1)OCCOCCOCCO2 | inactive: 1.41
CCOCc1cnc(C)nc1N | inactive: 1.28
Cc1cc(-c2cc(O)[nH]n2)n(C)n1 | inactive: 1.01
c1ccc(-c2nnc(-c3ccco3)c(-c3ccco3)n2)nc1 | inactive: 0.919
c1ccc(C2=NNC(c3nc4ccccc4[nH]3)C2)cc1 (stereo unspecified) | inactive: 0.549
Cn1cccc1/C=N\NC(=O)CCCCCCCC(=O)N/N=C/c1cccn1C | inactive: 0.914
Clc1cc(-n2cnnn2)ccc1Oc1cccnc1 | inactive: 1.03
C=C(C)C1CCC(C)C(OC(C)=O)C1 (stereo unspecified) | inactive: 1.46
Cc1cc(C)c2c(=O)nc(SCc3cc(=O)n4ccccc4n3)n(C3CC3)c2n1 | inactive: 1.07
COc1ccc(-c2nnc(N3CCCC3)o2)cc1OC | inactive: 1.01
Oc1c(Cl)cc(Cl)cc1/C=N/c1nccs1 | inactive: 1.66
Cc1[nH]nc2c1C1(CC[C@H]3CO[C@@H]1O3)C(C#N)=C(N)O2 (stereo partly specified) | inactive: 0.958
CC(C)(C)CC(=O)Nc1nnc(CC(C)(C)C)s1 | inactive: 1.31
Fc1cccc(/C=N/N2CCN(C3c4ccccc4-c4ccccc43)CC2)c1 | inactive: 1.01
